Test results from the supplement of paper PMC8007513.
This is one part of the list. Many values rest on one well or one pass, so single values are uncertain.

These compounds were tested on Saccharomyces cerevisiae BY4743 (assay: growth (OD600) with compound + IPBC relative to untreated control; higher = less growth inhibition). Conditions: compound concentration: 133 uM; IPBC concentration: 0.5 ug/ml; 20 h.
Description: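 NMCCC compounds (133 uM) combined with IPBC (0.5 ug/ml) against Saccharomyces cerevisiae BY4743 in YPD, 96-well plates. Growth was read as OD600 at 20 h and expressed as % of the untreated control. Single pass.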

SMILES	growth
O=C(NCc1ccco1)N1CCN(c2ccccn2)CC1 + CCCCNC(=O)OCC#CI [3-iodo-2-propynyl butylcarbamate (IPBC)]	86.8%
CN(C)S(=O)(=O)c1ccc2c(c1)N(CC(=O)N1CCCCCC1)CCS2 + CCCCNC(=O)OCC#CI [3-iodo-2-propynyl butylcarbamate (IPBC)]	90.4%
CCOC(=O)C(Sc1nnc(C(F)(F)F)n1C)c1ccccc1 (centres undefined) + CCCCNC(=O)OCC#CI [3-iodo-2-propynyl butylcarbamate (IPBC)]	110%
CCSc1ncc(Cl)c(C(=O)Nc2nc(C)c(C(=O)OCC(C)C)s2)n1 + CCCCNC(=O)OCC#CI [3-iodo-2-propynyl butylcarbamate (IPBC)]	106%
CCOC(=O)\C1=C(/COC(=O)C2CCN(CC2)C(=O)C3=CC=CS3)NC(=O)NC1C (centres undefined) + CCCCNC(=O)OCC#CI [3-iodo-2-propynyl butylcarbamate (IPBC)]	109%
N#Cc1ccc(Oc2ccc(S(=O)(=O)N3CCOCC3)cn2)cc1 + CCCCNC(=O)OCC#CI [3-iodo-2-propynyl butylcarbamate (IPBC)]	100%
CC(NC(=O)CSc1nc(O)c2ccsc2n1)c1cccs1 (centres undefined) + CCCCNC(=O)OCC#CI [3-iodo-2-propynyl butylcarbamate (IPBC)]	92.5%
CN(C(=O)Cn1c(=O)[nH]c2ccccc2c1=O)C1CCS(=O)(=O)C1 (centres undefined) + CCCCNC(=O)OCC#CI [3-iodo-2-propynyl butylcarbamate (IPBC)]	98.6%
CC(C)CC[N]1C(=CC(=C1C)C(=O)CN2\N=C(/C=C\C2=O)C3=CC=CC=C3)C + CCCCNC(=O)OCC#CI [3-iodo-2-propynyl butylcarbamate (IPBC)]	85.6%
CC(=O)c1csc(NC(=O)CCc2ccsc2)n1 + CCCCNC(=O)OCC#CI [3-iodo-2-propynyl butylcarbamate (IPBC)]	96%
CN(C)C1(CCCCCC1)CNC(=O)CN2\N=C3\CCCCCN3C2=O + CCCCNC(=O)OCC#CI [3-iodo-2-propynyl butylcarbamate (IPBC)]	96.8%
Cc1cnc(NC(=O)CN2CSCC2=O)s1 + CCCCNC(=O)OCC#CI [3-iodo-2-propynyl butylcarbamate (IPBC)]	89.5%
COC(=O)c1c(C)[nH]c(C(=O)N2CCN(S(C)(=O)=O)CC2)c1C + CCCCNC(=O)OCC#CI [3-iodo-2-propynyl butylcarbamate (IPBC)]	102%
Cc1cccc(Cl)c1NS(=O)(=O)c1ccc(C)c(N2CCCC2=O)c1C + CCCCNC(=O)OCC#CI [3-iodo-2-propynyl butylcarbamate (IPBC)]	100%
O=C(NCc1ccc(F)cc1)c1sccc1S(=O)(=O)NC1CC1 + CCCCNC(=O)OCC#CI [3-iodo-2-propynyl butylcarbamate (IPBC)]	104%
Cn1cc(CCNC(=O)NC2CCOc3ccccc32)cn1 (centres undefined) + CCCCNC(=O)OCC#CI [3-iodo-2-propynyl butylcarbamate (IPBC)]	105%
CCOC1=CC(=CC=C1O)C\2CC(=O)N\C(=C2C#N)SCC(=O)NC3=CC=C(C)C=C3C (centres undefined) + CCCCNC(=O)OCC#CI [3-iodo-2-propynyl butylcarbamate (IPBC)]	97%
COCCn1c(N2CCN(C)CC2)nc2c1c(=O)n(C)c(=O)n2C + CCCCNC(=O)OCC#CI [3-iodo-2-propynyl butylcarbamate (IPBC)]	102%
Cc1nc(COC(=O)C(C)Oc2ccc(C#N)cc2)nc2ccccc12 (centres undefined) + CCCCNC(=O)OCC#CI [3-iodo-2-propynyl butylcarbamate (IPBC)]	94.2%
Cc1ccc(-c2cnoc2NC(=O)CSC(C)C)cc1 + CCCCNC(=O)OCC#CI [3-iodo-2-propynyl butylcarbamate (IPBC)]	96.3%

As entered above.
Value for Cc1ccc(-c2cnoc2NC(=O)CSC(C)C)cc1 + CCCCNC(=O)OCC#CI [3-iodo-2-propynyl butylcarbamate (IPBC)] under growth: 96.3%
Value for CC(=O)c1csc(NC(=O)CCc2ccsc2)n1 + CCCCNC(=O)OCC#CI [3-iodo-2-propynyl butylcarbamate (IPBC)] under growth: 96%
Value for Cc1cccc(Cl)c1NS(=O)(=O)c1ccc(C)c(N2CCCC2=O)c1C + CCCCNC(=O)OCC#CI [3-iodo-2-propynyl butylcarbamate (IPBC)] under growth: 100%

Following part:

SMILES	growth
COc1ccc(OC)c(C2CCCN2C(=O)COc2ccc(NC(C)=O)cc2)c1 (centres undefined) + CCCCNC(=O)OCC#CI [3-iodo-2-propynyl butylcarbamate (IPBC)]	99.9%
COc1cc(NC(=O)c2cc(S(=O)(=O)N3CCCC3)c(Cl)cc2Cl)ccc1OC(F)F + CCCCNC(=O)OCC#CI [3-iodo-2-propynyl butylcarbamate (IPBC)]	76%
COc1ccccc1/N=C1\C(Cl)=C(O)OC1OC(=O)c1ccccc1Br (centres undefined) + CCCCNC(=O)OCC#CI [3-iodo-2-propynyl butylcarbamate (IPBC)]	100%
CC1CC(=O)Nc2cc(S(=O)(=O)N(C)C3CCCCC3)ccc2S1 (centres undefined) + CCCCNC(=O)OCC#CI [3-iodo-2-propynyl butylcarbamate (IPBC)]	94.2%
O=C(CN1\N=N/C2=CC=CC=C2C1=O)NC3(CCCCC3)C#N + CCCCNC(=O)OCC#CI [3-iodo-2-propynyl butylcarbamate (IPBC)]	105%
CCC1CN(CN2C(=O)C(=O)c3c(Br)cccc32)CCO1 (centres undefined) + CCCCNC(=O)OCC#CI [3-iodo-2-propynyl butylcarbamate (IPBC)]	109%
CCCOc1ccc(C(F)(F)F)cc1NS(=O)(=O)c1ccc(CNC(C)=O)s1 + CCCCNC(=O)OCC#CI [3-iodo-2-propynyl butylcarbamate (IPBC)]	100%
NCCCC(=O)OC1\N=C(\C2=CC=CC=C2Cl)C3=CC(=CC=C3NC1=O)Br (centres undefined) + CCCCNC(=O)OCC#CI [3-iodo-2-propynyl butylcarbamate (IPBC)]	94.2%
CC(=O)NC(C(=O)N1CCN(Cc2nnc3n2CCCCC3)CC1)C(C)C (centres undefined) + CCCCNC(=O)OCC#CI [3-iodo-2-propynyl butylcarbamate (IPBC)]	104%
Cc1cc(Br)cc(C)c1OCC(=O)Nc1sc2c(c1C(N)=O)CCCC2 + CCCCNC(=O)OCC#CI [3-iodo-2-propynyl butylcarbamate (IPBC)]	82.8%
CC(=O)N1c2ccc(S(=O)(=O)NC(C(=O)Nc3ccccn3)C(C)C)cc2CC1C (centres undefined) + CCCCNC(=O)OCC#CI [3-iodo-2-propynyl butylcarbamate (IPBC)]	104%
Cc1ccc(OCC(=O)NCCc2ccc(F)cc2)c2c1C(C)CC2=O (centres undefined) + CCCCNC(=O)OCC#CI [3-iodo-2-propynyl butylcarbamate (IPBC)]	89.9%
COc1cc(OC)cc(-c2nnc(SCC(=O)N3CCOCC3)o2)c1 + CCCCNC(=O)OCC#CI [3-iodo-2-propynyl butylcarbamate (IPBC)]	89.7%
ClC1=CC=CC(=C1)NC(=O)CS\C2=N\C(=O)CC(N2)C3=CC=CC=C3 (centres undefined) + CCCCNC(=O)OCC#CI [3-iodo-2-propynyl butylcarbamate (IPBC)]	103%
O=C(NCC(c1ccco1)S(=O)(=O)c1cccs1)C(=O)NC1CCCCC1 (centres undefined) + CCCCNC(=O)OCC#CI [3-iodo-2-propynyl butylcarbamate (IPBC)]	89%
COC1=CC=C(F)C=C1CN2\C=N/C3=C(C(=C(C)S3)C)C2=O + CCCCNC(=O)OCC#CI [3-iodo-2-propynyl butylcarbamate (IPBC)]	111%
CCCCN1\C(=N/[S](=O)(=O)C2=CC(=CC=C12)C(=O)NCCN3CCOCC3)C + CCCCNC(=O)OCC#CI [3-iodo-2-propynyl butylcarbamate (IPBC)]	94.1%
CC(C)C(=O)NC1=CC=C(C=C1)C(=O)C(C)OC(=O)CN2\C=N/C3=C(C=CS3)C2=O (centres undefined) + CCCCNC(=O)OCC#CI [3-iodo-2-propynyl butylcarbamate (IPBC)]	109%
CCCc1cc(NCCN(C)C)n2nc3nc(C)cc(C)c3c2n1 + CCCCNC(=O)OCC#CI [3-iodo-2-propynyl butylcarbamate (IPBC)]	98.3%
